PubChem BioAssay AID1259254 | NCATS – 2017
Shown is an unselected part of about 59,000 reagents. About 1,550 of them (2.6%) were called active. 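G2 share is only a proxy for re-replication; each gene was hit by three separate siRNAs, and active genes were retested.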 Raw values are not corrected between plates. A number with no mark means an inactive call. Not stated in the record: the amount of reagent.

- Assay: 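Gene knock-downs that lead to re-replication, shown by excess G2 DNA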 (primary screen)
- Cells: human HCT116 colorectal cancer cells
- Knock-down reagent: single siRNA against human genes
- Duration: 3 days
- Measured: 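Imaged Hoechst DNA stain sorts each cell into a cycle phase by DNA amount; per plate, G2 fraction set to 0% for non-targeting and 100% for GMNN siRNA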
- Direction: G2 robust z-score and G2 cells, % of GMNN control: higher = more G2 cells, more excess DNA replication; raw share of cells in G2: higher = larger share of cells with G2 DNA content
- Hit rule: 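An siRNA counts as active if its G2 robust z-score lies at least 5 MADs above the screen median; here such calls match roughly 38% of GMNN control or more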

no.	Gene	PubChem SID	G2 robust z-score	G2 cells, % of GMNN control	raw share of cells in G2 (%)
1	PLG	SID160714466	0.31	5.15	7.35
2	PLG	SID160714467	-0.00882	2.91	5.94
3	PLG	SID160731430	-0.415	0.045	3.93
4	TUBA3C	SID160724101	-0.425	-0.0219	5.59
5	TUBA3C	SID160724102	-0.489	-0.476	4.32
6	TUBA3C	SID160724103	3.5	27.6	14.5
7	UBE2U	SID160758715	1.25	11.8	11.6
8	UBE2U	SID160758716	-0.582	-1.13	4.29
9	UBE2U	SID160758717	0.544	6.79	7.56
10	HNRNPCP2	SID160726397	-0.128	2.07	4.22
11	HNRNPCP2	SID160726398	1.66	14.7	8.58
12	HNRNPCP2	SID160728030	-0.0178	2.84	3.62
13	PPP2R2A	SID160773736	1.94	16.6	10.2
14	PPP2R2A	SID160773790	1.98	16.9	9.4
15	PPP2R2A	SID160773872	-0.327	0.669	3.7
16	TMED2	SID160729624	-0.12	2.12	6.62
17	TMED2	SID160729625	0.884	9.19	6.81
18	TMED2	SID160729626	-0.748	-2.3	5.57
19	RFWD3	SID160743089	-0.531	-0.766	4.01
20	RFWD3	SID160743090	-0.182	1.69	7.17
21	RFWD3	SID160743091	0.424	5.95	6.57
22	PCSK2	SID160713948	0.943	9.6	7.2
23	PCSK2	SID160713949	1.31	12.2	7.16
24	PCSK2	SID160713950	-1.04	-4.32	3.39
25	FRMPD2	SID160730639	0.679	7.74	7.96
26	FRMPD2	SID160758005	2.77	22.5	16.7
27	FRMPD2	SID160758006	2.68	21.8	12.7

Records above whose target name begins with T or t (6):
Gene	PubChem SID	G2 robust z-score	G2 cells, % of GMNN control	raw share of cells in G2 (%)
TUBA3C	SID160724101	-0.425	-0.0219	5.59
TUBA3C	SID160724102	-0.489	-0.476	4.32
TUBA3C	SID160724103	3.5	27.6	14.5
TMED2	SID160729624	-0.12	2.12	6.62
TMED2	SID160729625	0.884	9.19	6.81
TMED2	SID160729626	-0.748	-2.3	5.57

Further reagents follow.
no.	Gene	PubChem SID	G2 robust z-score	G2 cells, % of GMNN control	raw share of cells in G2 (%)
28	SEL1L	SID160716546	3.3	26.2	13.5
29	SEL1L	SID160716547	4.6	35.3	17.6
30	SEL1L	SID160716548	-0.767	-2.43	3.15
31	SOX13	SID160722547	-0.454	-0.224	3.12
32	SOX13	SID160722548	0.665	7.64	8.09
33	SOX13	SID160722549	0.166	4.13	6.43
34	RPS28P6	SID160726695	1.07	10.5	6.57
35	RPS28P6	SID160726697	0.297	5.06	5.52
36	RPS28P6	SID160771821	-0.0845	2.37	4.44
37	CTBP2	SID160750159	5.33 (active)	40.5	18
38	CTBP2	SID160750170	-0.822	-2.82	3.96
39	CTBP2	SID160750180	-1.17	-5.26	3.09
40	CNN1	SID160745388	0.156	4.06	7.21
41	CNN1	SID160745399	4.27	33	16.2
42	CNN1	SID160745411	-0.383	0.274	3.63
43	SERPINH1	SID160737363	-0.0771	2.42	5.54
44	SERPINH1	SID160737374	2.21	18.5	11.7
45	SERPINH1	SID160737385	-0.528	-0.747	3.71
46	KLHL20	SID160730971	2.56	21	15.7
47	KLHL20	SID160738615	0.156	4.06	5.54
48	KLHL20	SID160738616	2.36	19.6	10.4
49	FAM111A	SID160747245	1.03	10.2	9.02
50	FAM111A	SID160747246	0.229	4.58	6.66
51	FAM111A	SID160747247	-0.406	0.108	2.73
52	IL36R	SID160720858	1.55	13.8	10.8
53	IL36R	SID160720859	-1.17	-5.27	2.82
54	IL36R	SID160720860	0.164	4.12	6.71
55	RGS14	SID160728925	1.1	10.7	7.29
56	RGS14	SID160728926	-0.82	-2.8	5.37
57	RGS14	SID160728927	-0.816	-2.77	4.49
58	GSTA5	SID160761662	-0.104	2.23	7.02
59	GSTA5	SID160761663	-0.368	0.375	4.84
60	GSTA5	SID160761664	-0.949	-3.71	3.14
61	ADGRE5	SID160739865	0.287	4.99	7.62
62	ADGRE5	SID160739876	0.58	7.05	6.98
63	ADGRE5	SID160739885	-0.61	-1.33	2.86
64	TAP2	SID160717699	1.43	13	8.48
65	TAP2	SID160717700	0.193	4.33	6.33
66	TAP2	SID160717701	10.2 (active)	74.4	30.6
67	SNHG29	SID160732406	0.0755	3.5	2.84
68	SNHG29	SID160756312	1.69	14.8	10
69	SNHG29	SID160756313	-1.07	-4.54	1.98
